Measured values as given in publication PMC11196215.
No constants are given. Whether binding was seen depends on the method and setting. In cells and extracts the contact can be indirect. For part of these data: Binding calls can cover weak binding; strength is not graded here. Sequences can lack the tags named with a protein.

Experiments:
Test in all cases: co-IP; PDK2 co-immunoprecipitated with HA-tagged FOXK2 deletion constructs; cell lysate in IP buffer; protein A/G beads with antibody; overnight at 4 °C; western blotting; cell line not stated
[1] = target: T1, FOXK2-Δ(54-128)-HA (human) (UniProt Q01167)
T1 sequence: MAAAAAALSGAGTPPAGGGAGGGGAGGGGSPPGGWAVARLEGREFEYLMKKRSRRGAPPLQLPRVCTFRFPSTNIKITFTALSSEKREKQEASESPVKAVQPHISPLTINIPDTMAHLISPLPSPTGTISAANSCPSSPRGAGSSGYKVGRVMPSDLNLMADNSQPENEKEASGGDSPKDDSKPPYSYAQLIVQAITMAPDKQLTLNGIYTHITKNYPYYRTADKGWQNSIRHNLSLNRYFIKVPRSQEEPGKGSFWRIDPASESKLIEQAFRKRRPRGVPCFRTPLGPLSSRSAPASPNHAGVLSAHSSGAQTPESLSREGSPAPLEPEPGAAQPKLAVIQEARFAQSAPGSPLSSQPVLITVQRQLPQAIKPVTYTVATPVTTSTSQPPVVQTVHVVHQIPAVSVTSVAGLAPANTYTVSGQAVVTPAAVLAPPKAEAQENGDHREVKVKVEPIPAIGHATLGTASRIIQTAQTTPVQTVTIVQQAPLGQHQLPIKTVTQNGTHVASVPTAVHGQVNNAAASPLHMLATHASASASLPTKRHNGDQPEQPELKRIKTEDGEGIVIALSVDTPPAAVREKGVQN

[2] = target: T2, FOXK2-Δ(300-371)-HA (human) (UniProt Q01167)
T2 sequence: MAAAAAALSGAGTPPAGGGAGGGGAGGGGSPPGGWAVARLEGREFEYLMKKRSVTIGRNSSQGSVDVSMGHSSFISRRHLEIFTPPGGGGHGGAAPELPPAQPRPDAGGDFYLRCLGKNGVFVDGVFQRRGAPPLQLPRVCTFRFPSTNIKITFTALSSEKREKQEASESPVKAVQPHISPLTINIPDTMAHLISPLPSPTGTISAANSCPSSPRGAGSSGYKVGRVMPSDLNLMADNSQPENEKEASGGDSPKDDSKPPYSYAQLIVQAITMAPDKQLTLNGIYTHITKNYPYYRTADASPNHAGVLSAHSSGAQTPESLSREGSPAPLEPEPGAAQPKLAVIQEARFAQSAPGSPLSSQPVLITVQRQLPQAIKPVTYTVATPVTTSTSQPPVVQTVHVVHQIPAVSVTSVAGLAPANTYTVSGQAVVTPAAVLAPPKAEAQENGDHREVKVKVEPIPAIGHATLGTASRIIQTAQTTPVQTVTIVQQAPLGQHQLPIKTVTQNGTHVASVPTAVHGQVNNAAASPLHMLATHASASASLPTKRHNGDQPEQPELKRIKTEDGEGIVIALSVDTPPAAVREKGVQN

[3] = target: T3, FOXK2-Δ(129-171)-HA (human) (UniProt Q01167)
T3 sequence: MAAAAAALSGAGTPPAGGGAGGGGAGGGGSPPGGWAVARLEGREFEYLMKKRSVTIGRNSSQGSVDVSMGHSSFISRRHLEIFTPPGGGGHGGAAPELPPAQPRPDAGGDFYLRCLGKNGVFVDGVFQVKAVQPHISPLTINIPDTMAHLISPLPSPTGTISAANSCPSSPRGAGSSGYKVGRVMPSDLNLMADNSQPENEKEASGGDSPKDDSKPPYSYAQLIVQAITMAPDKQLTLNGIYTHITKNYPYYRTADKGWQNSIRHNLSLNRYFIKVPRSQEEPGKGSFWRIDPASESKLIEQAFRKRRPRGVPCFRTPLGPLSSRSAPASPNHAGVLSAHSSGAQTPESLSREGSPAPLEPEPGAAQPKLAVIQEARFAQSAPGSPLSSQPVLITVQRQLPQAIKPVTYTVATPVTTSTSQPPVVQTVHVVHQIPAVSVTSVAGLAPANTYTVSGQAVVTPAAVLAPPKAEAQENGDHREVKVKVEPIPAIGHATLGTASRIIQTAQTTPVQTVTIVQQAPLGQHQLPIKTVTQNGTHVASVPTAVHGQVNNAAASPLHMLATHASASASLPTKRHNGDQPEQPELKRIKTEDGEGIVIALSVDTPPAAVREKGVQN

binding [1]: no binding
binding [2]: binds
binding [3]: binds
Substance: PDK2-Flag (human) (enzyme)
